The list shows a part of the results. Most values lie at the level of the controls, where differences are scatter.
Compound: CN[C@@H]1C[C@H]2O[C@@](C)([C@@H]1OC)n1c3ccccc3c3c4c(c5c6ccccc6n2c5c31)C(=O)NC4 [staurosporine]
Test: log2 fold change of tryptic peptide abundance, ligand vs vehicle (limited proteolysis) (log2 ratio); higher = more trypsin-susceptible (destabilized)
Details: ligand concentration: 20 uM; sample: K562 cleared lysate; digestion: 4 min, 22 C (HT-PELSA RT4min, Orbitrap Astral)

Amino acid sequences for entries named in this document (tags omitted). A change or cut given only in a name is not applied to a line headed by its entry.
UniProt P56962: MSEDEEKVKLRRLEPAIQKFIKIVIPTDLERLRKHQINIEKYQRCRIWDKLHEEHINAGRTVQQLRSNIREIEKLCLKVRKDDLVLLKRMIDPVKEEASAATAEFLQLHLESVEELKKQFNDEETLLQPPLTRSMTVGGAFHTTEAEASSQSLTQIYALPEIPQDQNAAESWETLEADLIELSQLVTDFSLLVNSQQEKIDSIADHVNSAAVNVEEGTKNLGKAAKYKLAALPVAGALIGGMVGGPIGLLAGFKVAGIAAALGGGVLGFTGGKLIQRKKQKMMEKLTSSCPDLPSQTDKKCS
UniProt P57772: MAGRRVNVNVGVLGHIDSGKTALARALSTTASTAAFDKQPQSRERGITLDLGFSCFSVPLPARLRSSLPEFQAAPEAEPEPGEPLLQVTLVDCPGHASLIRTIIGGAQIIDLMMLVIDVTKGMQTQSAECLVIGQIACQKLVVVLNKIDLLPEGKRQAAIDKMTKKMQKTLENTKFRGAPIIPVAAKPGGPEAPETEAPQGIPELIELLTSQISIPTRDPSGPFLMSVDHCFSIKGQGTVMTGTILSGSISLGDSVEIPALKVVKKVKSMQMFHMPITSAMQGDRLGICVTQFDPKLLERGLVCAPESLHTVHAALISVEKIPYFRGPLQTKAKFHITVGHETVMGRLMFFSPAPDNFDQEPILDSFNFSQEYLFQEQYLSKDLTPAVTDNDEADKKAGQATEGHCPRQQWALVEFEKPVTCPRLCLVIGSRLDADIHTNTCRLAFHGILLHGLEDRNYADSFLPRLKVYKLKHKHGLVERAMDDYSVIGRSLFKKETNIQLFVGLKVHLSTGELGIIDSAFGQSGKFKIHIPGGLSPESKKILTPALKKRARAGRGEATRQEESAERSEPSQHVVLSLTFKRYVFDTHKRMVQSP
UniProt P78337, whole entry: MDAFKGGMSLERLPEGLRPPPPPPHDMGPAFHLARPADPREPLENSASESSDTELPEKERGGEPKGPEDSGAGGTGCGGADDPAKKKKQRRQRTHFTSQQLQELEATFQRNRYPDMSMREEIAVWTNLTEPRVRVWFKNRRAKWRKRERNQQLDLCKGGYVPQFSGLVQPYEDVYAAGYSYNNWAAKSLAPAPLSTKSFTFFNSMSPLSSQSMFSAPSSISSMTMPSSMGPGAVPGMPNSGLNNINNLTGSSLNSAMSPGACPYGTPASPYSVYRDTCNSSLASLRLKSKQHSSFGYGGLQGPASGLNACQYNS
UniProt P56377: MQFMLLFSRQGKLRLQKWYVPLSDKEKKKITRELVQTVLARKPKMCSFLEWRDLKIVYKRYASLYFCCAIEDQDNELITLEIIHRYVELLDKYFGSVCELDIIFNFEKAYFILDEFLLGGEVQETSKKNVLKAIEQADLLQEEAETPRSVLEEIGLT
UniProt P56211: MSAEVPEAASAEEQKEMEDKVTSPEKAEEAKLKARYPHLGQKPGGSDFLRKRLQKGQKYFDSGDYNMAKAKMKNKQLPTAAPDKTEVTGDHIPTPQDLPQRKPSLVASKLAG
UniProt P61081: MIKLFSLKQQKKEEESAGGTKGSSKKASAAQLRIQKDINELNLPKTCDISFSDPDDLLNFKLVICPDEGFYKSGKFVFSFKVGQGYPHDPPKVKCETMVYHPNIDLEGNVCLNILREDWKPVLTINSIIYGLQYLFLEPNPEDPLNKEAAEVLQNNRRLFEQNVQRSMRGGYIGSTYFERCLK
UniProt P57081: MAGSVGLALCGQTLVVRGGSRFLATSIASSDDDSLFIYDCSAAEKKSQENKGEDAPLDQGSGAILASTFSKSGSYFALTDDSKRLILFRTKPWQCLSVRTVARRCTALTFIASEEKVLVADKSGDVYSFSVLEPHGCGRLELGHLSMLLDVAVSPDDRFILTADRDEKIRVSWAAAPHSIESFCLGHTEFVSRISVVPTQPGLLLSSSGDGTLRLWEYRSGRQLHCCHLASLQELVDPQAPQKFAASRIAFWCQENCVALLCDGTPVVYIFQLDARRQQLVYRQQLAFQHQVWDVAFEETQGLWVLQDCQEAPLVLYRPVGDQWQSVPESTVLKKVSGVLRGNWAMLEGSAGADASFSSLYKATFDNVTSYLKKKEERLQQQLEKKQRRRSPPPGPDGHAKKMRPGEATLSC
UniProt P60484: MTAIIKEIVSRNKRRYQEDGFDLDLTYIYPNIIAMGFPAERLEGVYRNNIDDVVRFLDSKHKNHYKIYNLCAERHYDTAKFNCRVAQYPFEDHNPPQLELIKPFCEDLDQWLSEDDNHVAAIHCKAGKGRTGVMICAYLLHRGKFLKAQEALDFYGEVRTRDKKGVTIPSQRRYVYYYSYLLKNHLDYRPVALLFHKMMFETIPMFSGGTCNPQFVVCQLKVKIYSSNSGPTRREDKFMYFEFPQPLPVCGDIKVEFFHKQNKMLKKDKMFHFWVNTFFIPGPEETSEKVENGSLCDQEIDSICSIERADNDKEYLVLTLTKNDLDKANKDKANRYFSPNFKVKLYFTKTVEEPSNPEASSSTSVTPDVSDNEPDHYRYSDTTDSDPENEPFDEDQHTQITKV

Row | Target | log2 fold change
1 | STX17 (peptide sequence: RLEPAIQK, peptide start residue: 12) (UniProt P56962) | 0.383
2 | EEFSEC (peptide sequence: QQWALVEFEKPVTCPR, peptide start residue: 409) (UniProt P57772) | -0.166
3 | PITX1 (peptide sequence: LPEGLRPPPPPPHDMGPAFHLAR, peptide start residue: 13) (UniProt P78337) | -0.209
4 | AP1S2 (peptide sequence: SVLEEIGLT, peptide start residue: 149) (UniProt P56377) | -0.122
5 | ARPP19 (peptide sequence: YPHLGQKPGGSDFLR, peptide start residue: 36) (UniProt P56211) | -0.0521
6 | RPS3A (peptide sequence: LFCVGFTKKR, peptide start residue: 137) (UniProt P61247) | 1.33
7 | UniProt P62273 (peptide sequence: DIGFIKLD, peptide start residue: 49) | 0.175
8 | UniProt P61081 (peptide sequence: VGQGYPHDPPK, peptide start residue: 82) | 0.25
9 | WDR4 (peptide sequence: VSWAAAPHSIESFCLGHTEFVSR, peptide start residue: 171) (UniProt P57081) | -0.232
10 | PTEN (peptide sequence: NHLDYRPVALLFHK, peptide start residue: 184) (UniProt P60484) | 0.236
